In the supplement of paper PMC10338343:
± gives the standard deviation. The list shows a part of the results, in another mix than the full data. Many entries were measured with a wide error.

The sequences below were run on MIWI (PIWIL1) piRISC loaded with L1MC piRNA (30 nt) (assay: pre-steady-state target cleavage rate (min^-1); MIWI and MILI are mouse PIWI proteins and EfPiwi is from a freshwater sponge; tags in brackets are library labels; higher = faster piRNA-guided slicing of the target). Conditions: guide: L1MC piRNA 5'p-UAACUAAAUACUAUGCAAGCUGUAGGUCCU; auxiliary factor: none (no GTSF1).
Method in brief: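 Active affinity-purified piRISC carrying one synthetic guide (1 nM) was mixed with a transcribed, DNA-blocked target RNA library […] in HEPES–potassium acetate buffer at 33 °C for 0–8 or 0–960 min, with or without 500 nM GTSF1 partner protein. Uncleaved targets were then sequenced and normalised to depth and to weakly complementary targets. Three trials were pooled, and k3 was capped at 0.0001 min^-1. A burst-and-steady-state fit was applied to obtain the pre-steady-state cleavage rate.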
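Note: 1 nM active piRISC with 0.1 nM target library at 33 °C single turnover.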

Sequence | pre-steady-state target cleavage rate
UCGACCUACAGCUUCCAUAGUAUUUUCAAA | 0.000632 ± 0.0089
UCCACCUAGAGCUUCCAUAGUAUUUAGUUA | 0.00137 ± 0.0035
AGGACCUACAGCUUGCAUAUGUAUUUAGUUA | 0.000812 ± 0.011
UCCACCUACAGCUUGCAUAGAUUUUAGUAA | 0.00144 ± 0.0034
UCGACCUAGUCCUUGCAUAGUAUUUUCAAA | 0.00129 ± 0.0029
UCCACCUACAGCAUGCAUAGUAUUUACAAA | 0.00106 ± 0.0054
UCCACCUACAGCUUGCAUAGUAUUUUCAAA [g6:g27:cont:t1A] | 0.00216 ± 0.0044
UCGACCUACAGCUUGCAUAGUAAAAAGUUA | 0.00224 ± 0.0038
UCGACCUACAGCUUCCAUAGUAUUUAGUAA | 0.002 ± 0.0043
UCCACCUACAGCAACCAUAGUAUUUACAAA | 0.000259 ± 0.014
UGGACCUACAGCUUCGUUAGUAUUUAGAAA | 0.000258 ± 0.012
UCGACCUACAGCUUGCAUACAUUUUACAAA | 0.000405 ± 0.013
UCGACCUACAGCUUGCAUUCAAUUUUCAAA | 0.000654 ± 0.013
UCGACCUACAGCUUGCAUUGUAUUUUCAAA | 0.00139 ± 0.0059
UCCACCUACAGGAUGCAUAGUAUUUUCAAA | 0.000515 ± 0.01
UGGACCUACAGGUUGCAUAGUAUUUUCAAA | 0.00178 ± 0.0022
UCCACCUACAGCUUGCAUAGAAUUUACAAA | 0.00199 ± 0.0036
AGGACCUACAGCUUGCACUAGUAUUUAGUUA | 0.00102 ± 0.0077
UCCACCUACAGCUUGCAUAGUUAUUACAAA | 0.000565 ± 0.012

Sequence | pre-steady-state target cleavage rate
UCCACCUACAGCUUGCAUAGUAUGUAGUUA | 0.00331 ± 0.0036
UCCUGGAUGUCGAUGCAUUCAAUUUAGUUA | 0.000514 ± 0.011
UGGACCUACAGCUUGCAUAGUAAAAUCAAA | 0.000337 ± 0.0072
UCCACCUACAGCAACCAUAGUAUUUUCAAA | 0.00016 ± 0.021
AGGACCUACAGCUUGCAUAGUAUUAUCAAA | 0.00235 ± 0.0041
UCCACCUACAGCUACCAUAGUAUUUAGAAA | 0.000857 ± 0.0081
UCCACCUACAGCUUGCAUAGUAUUAUCUAA | 0.00144 ± 0.0051
UGGACCUACAGCUUGCAUUCAAUUUAGAAA | 0.000239 ± 0.0084
UCCUGGAUGUCGAACCAUAGUAUAAUCAAA [g8:g15:cont:t1A] | 0.000206 ± 0.026
UCGUGCUACAGCUUGCAUAGUAUUUUCAAA | 0.00185 ± 0.0036
AGGACCUACAGCUUGCAUAGUAUAAAGAAA | 0.00215 ± 0.0043
AGGACCUACAGCUACGAUAGUAUUUAGUAA | 0.000323 ± 0.011
UCGACCUACACGAUGCAUAGUAUUUACAAA | 0.000817 ± 0.0096
UCCACCUACAGCUUCCAUACUAUUUAGUUA | 0.00123 ± 0.0051
AGGACCUACAGCUUCCAUAGAAUUUAGUUA | 0.00144 ± 0.0032
UCGACCUACAGCUUCCAUAGUAUAUAGUUA | 0.00106 ± 0.0058
UGGACCUACAGCUUGCAUAGAUAUUAGAAA | 0.000696 ± 0.0091
UCGACCUACAGCUUGCAAUCUAUUUACAAA | 0.000258 ± 0.013
UCCUGGAUGUCGUUGCAUAGAAUUUACUUA | 0.000162 ± 0.016

A different layout for part of the listing above.
Sequence,pre-steady-state target cleavage rate
UCCACCUACAGCUUGCAUAGAAUUUACAAA,0.00199 ± 0.0036
AGGACCUACAGCUUGCACUAGUAUUUAGUUA,0.00102 ± 0.0077
UCCACCUACAGCUUGCAUAGUUAUUACAAA,0.000565 ± 0.012
UCCACCUACAGCUUGCAUAGUAUGUAGUUA,0.00331 ± 0.0036
UCCUGGAUGUCGAUGCAUUCAAUUUAGUUA,0.000514 ± 0.011
UGGACCUACAGCUUGCAUAGUAAAAUCAAA,0.000337 ± 0.0072
UCCACCUACAGCAACCAUAGUAUUUUCAAA,0.00016 ± 0.021
AGGACCUACAGCUUGCAUAGUAUUAUCAAA,0.00235 ± 0.0041
UCCACCUACAGCUACCAUAGUAUUUAGAAA,0.000857 ± 0.0081
